Reference: paper PMC10415183
These are yes or no findings as the source states them, for the method shown. In cells and extracts the contact can be indirect. Some results given as binding are weak or reduced against the parent protein; the word gives no strength. Where a sequence is shown, tags or fusion partners need not be part of it.

Chains of the proteins cited; added tags and fusions are not shown. Residues count along the entry.
UniProt Q9BXW4, residues 1-126: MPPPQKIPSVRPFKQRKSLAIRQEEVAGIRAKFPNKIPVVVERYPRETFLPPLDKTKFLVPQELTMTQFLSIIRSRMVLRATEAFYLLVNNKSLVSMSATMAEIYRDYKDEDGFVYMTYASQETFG

Biological target: 3xFLAG-LC3C (UniProt Q9BXW4)
Test: co-IP; HEK293T cells co-expressing HA-spartin and 3xFLAG–ATG8 proteins; anti-FLAG M2 affinity gel, 2 h at 4 °C; 50 mM Tris pH 8, 150 mM NaCl, 1 mM EDTA, 1% Triton X-100; blot with anti-HA and anti-FLAG

binding: binds
B1: HA-spartin (protein, UniProt Q8N0X7 1-666)
chain: MEQEPQNGEPAEIKIIREAYKKAFLFVNKGLNTDELGQKEEAKNYYKQGIGHLLRGISISSKESEHTGPGWESARQMQQKMKETLQNVRTRLEILEKGLATSLQNDLQEVPKLYPEFPPKDMCEKLPEPQSFSSAPQHAEVNGNTSTPSAGAVAAPASLSLPSQSCPAEAPPAYTPQAAEGHYTVSYGTDSGEFSSVGEEFYRNHSQPPPLETLGLDADELILIPNGVQIFFVNPAGEVSAPSYPGYLRIVRFLDNSLDTVLNRPPGFLQVCDWLYPLVPDRSPVLKCTAGAYMFPDTMLQAAGCFVGVVLSSELPEDDRELFEDLLRQMSDLRLQANWNRAEEENEFQIPGRTRPSSDQLKEASGTDVKQLDQGNKDVRHKGKRGKRAKDTSSEEVNLSHIVPCEPVPEEKPKELPEWSEKVAHNILSGASWVSWGLVKGAEITGKAIQKGASKLRERIQPEEKPVEVSPAVTKGLYIAKQATGGAAKVSQFLVDGVCTVANCVGKELAPHVKKHGSKLVPESLKKDKDGKSPLDGAMVVAASSVQGFSTVWQGLECAAKCIVNNVSAETVQTVRYKYGYNAGEATHHAVDSAVNVGVTAYNINNIGIKAMVKKTATQTGHTLLEDYQIVDNSQRENQEGAANVNVRGEKDEQTKEVKEAKKKDK
